Assay [1] concerns the target T1, cYFP-RID (N. benthamiana) (Arabidopsis thaliana) (UniProt Q9SPU7).
T1 sequence: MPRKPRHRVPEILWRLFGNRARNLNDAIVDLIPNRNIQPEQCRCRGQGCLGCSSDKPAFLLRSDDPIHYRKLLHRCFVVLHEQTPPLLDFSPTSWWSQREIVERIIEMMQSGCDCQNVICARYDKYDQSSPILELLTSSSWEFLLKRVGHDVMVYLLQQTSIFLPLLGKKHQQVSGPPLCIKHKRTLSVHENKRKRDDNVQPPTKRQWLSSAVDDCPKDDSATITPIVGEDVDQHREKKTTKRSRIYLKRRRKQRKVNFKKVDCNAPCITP
As to the kind of experiment: split reporter; BiFC, nYFP/cYFP constructs (pE-SPYNE-GW, pE-SPYCE-GW, pC-SPYNE-GW) transiently expressed in N. benthamiana leaves, confocal microscopy after 3 days.

For assay [2], the target named is T2, cYFP-POT1a (N. benthamiana) (Arabidopsis thaliana) (UniProt Q56Y52).
T2 sequence: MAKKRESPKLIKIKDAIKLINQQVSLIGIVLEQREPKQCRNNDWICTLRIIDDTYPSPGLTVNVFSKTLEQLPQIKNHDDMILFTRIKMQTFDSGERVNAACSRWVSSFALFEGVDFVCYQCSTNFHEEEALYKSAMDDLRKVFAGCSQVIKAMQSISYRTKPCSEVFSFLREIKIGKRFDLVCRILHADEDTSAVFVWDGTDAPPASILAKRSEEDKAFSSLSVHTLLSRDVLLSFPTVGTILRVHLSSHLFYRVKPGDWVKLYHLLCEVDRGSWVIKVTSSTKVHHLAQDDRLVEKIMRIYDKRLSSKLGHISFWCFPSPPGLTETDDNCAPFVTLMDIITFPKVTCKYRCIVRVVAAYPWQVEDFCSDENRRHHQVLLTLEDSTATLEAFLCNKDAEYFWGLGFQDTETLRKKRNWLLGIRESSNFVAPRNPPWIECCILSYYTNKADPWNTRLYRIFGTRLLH
The description is as above.

Assay [3] addresses T3, cYFP-RID (Arabidopsis protoplasts) (Arabidopsis thaliana) (UniProt Q9SPU7).
T3 sequence: T1 sequence
Description: split reporter; BiFC, pSAT1-nEYFP-C1/pSAT1-cEYFP-C1-B constructs in Arabidopsis protoplasts, confocal microscopy 16 h after transfection.

In assay [4] the target is T4, AtTERT Fw3NNLS construct (229-582 aa) (Arabidopsis thaliana) (UniProt Q9SPU7).
T4 sequence: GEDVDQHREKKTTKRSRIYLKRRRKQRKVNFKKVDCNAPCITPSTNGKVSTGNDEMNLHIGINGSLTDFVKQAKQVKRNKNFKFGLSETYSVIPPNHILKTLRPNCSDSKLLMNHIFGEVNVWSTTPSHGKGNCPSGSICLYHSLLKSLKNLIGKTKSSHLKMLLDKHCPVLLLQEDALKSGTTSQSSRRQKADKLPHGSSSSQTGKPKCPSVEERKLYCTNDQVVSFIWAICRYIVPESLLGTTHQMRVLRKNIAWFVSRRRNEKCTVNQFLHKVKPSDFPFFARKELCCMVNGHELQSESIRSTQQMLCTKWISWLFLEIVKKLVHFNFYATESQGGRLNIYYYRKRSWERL
As to the kind of experiment: two-hybrid; Matchmaker GAL4 system, pGADT7-DEST/pGBKT7-DEST, S. cerevisiae PJ69-4α, 30 °C; growth on -LWH plates (with increasing 3-aminotriazol) and -LWHAde plates.

In assay [5] the target is T5, AtTERT RID construct (1-271 aa) (Arabidopsis thaliana) (UniProt Q9SPU7).
T5 sequence: T1 sequence
The assay is described as above.

For assay [6], the target named is T6, c-myc-tagged TEN, in vitro translated (Arabidopsis thaliana) (UniProt Q9SPU7).
T6 sequence: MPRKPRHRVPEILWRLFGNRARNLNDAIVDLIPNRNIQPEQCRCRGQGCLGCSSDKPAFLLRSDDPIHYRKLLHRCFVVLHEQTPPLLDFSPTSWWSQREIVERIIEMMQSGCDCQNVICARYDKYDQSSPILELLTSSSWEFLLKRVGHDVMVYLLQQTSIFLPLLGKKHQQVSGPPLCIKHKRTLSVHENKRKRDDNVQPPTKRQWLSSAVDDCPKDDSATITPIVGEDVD
Description: co-IP; both proteins translated in vitro in rabbit reticulocyte lysate; 35S-Met labelled prey mixed with c-myc- or HA-tagged bait in 25 mM HEPES pH 7.5, 150 mM KCl, 5 mM MgCl2, 0.1% Nonidet P-40; anti-c-myc or anti-HA magnetic beads.

Results are given in words; binding and its absence hold for the method and conditions named. For some of these results: Binding seen in cells or lysates may run through a third protein. Some entries that bind do so weakly or less than the wild type. For some of these results: Where a sequence is shown, tags or fusion partners need not be part of it.

B1: AT3G59020 BiFC construct (protein, UniProt F4J738 1-1030)
chain: MDLPSLALIVGAAAFSPNPDERRAAEQSLNQLQHTPQHLIRILQIIVDGGSDLSVRQSASIHFKNFIAKHWEPHSGDQNIILPSDKNVVRNQILVFVSQVPPILRVQMGECLKTIIYADYPEQWPELLDWVKQNLQKPQVYGALFVLRILSSKYEFKSDEDRAPIHRVVEETFPHLLNIFNNLVHVENPSLEVADHIKLICKIFWSCIYLELPRPLFDPNFFNAWMGLFLNILERPVPVEGQPEDPELRKSWGWWKAKKWIAHILNRLYTRFGDLKLQNPDNKAFAQMFQINYAAKILECHLKLLNAIRIGGYLPDRVINLILQYLSNSISKSSMYNLLQPHLNTLLFEIVFPLMCFNDNDQMLWDEDPHEYVRKGYDIIEDLYSPRTASMDFVTELVRKRGKENFPKFIQFVVDIFKRYNEASLENKPYRLKDGALLAVGTLCDKLRQTEPYKSELENMLVQHVFPEFSSPAGHLRAKAAWVAGQYANIDFSDQSNFSKALHCVISGMCDLELPVRVDSVFALRSFIEACKDLDEIRPVLPQLLDEFFKLMKEVENEDLAFTLETIVYKFGEEISPYALGLCQNLASAFWRCIDTDNGDDETDDAGALAAVGCLRAISTILESISSLPHLYGQIEPQLLPIMRKMLTTDGQDVFEEVLEIVSYITTFSPTISLEMWSLWPLMMEALVDWAIDFFPNILVPLHNYISRGTGHYLTCKEPDYQQNLWNVISVLMANKNIDDSDLEPAPKLLGIVLQTCKGQVDQWVEPYLRITLDRLRGAEKSSFKCLLVEVVANAFYYNTPLALGILQRFGIATEIFTLWFQMLQEKKKSGARSNFKREHDKKVCILGLTSLFSLPAGQLPGEVLPHVFRALLELLVAYKDQLAEAAKAEEEEEDEDGDDDDMDEFQTDDEDEDGDDENPDETDGSTLRKLAAQAKDFRSYSDDDDFSDDDFSDDEELESPIDEVDPFVLFMDAVTAMQVSDSPRFQSLTQTLDPHYHGLASTIAQHTELRRAEILKEKLEKQSSATVAS
Turning to B1, in assay [1], the binding result is “binds”.

B2: HSP90-7 BiFC construct (protein, UniProt Q9STX5 24-823)
chain: RKLHANAEESSDDVTDPPKVEEKIGGHGGLSTDSDVVHRESESMSKKTLRSNAEKFEFQAEVSRLMDIIINSLYSNKDIFLRELISNASDALDKIRFLALTDKDVLGEGDTAKLEIQIKLDKAKKILSIRDRGIGMTKEDLIKNLGTIAKSGTSAFVEKMQSSGDLNLIGQFGVGFYSAYLVADYIEVISKHNDDSQYVWESKANGKFAVSEDTWNEPLGRGTEIRLHLRDEAGEYLEESKLKELVKRYSEFINFPISLWASKEVETEVPVEEDESADEETETTSTEEEKEEDAEEEDGEKKQKTKKVKETVYEWELLNDVKAIWLRSPKEVTEEEYTKFYHSLSKDFTDEKPMAWSHFNAEGDVEFKAVLYVPPKAPHDLYESYYNSNKANLKLYVRRVFISDEFDELLPKYLSFLKGLVDSDTLPLNVSREMLQQHSSLKTIKKKLIRKALDMIRKLAEEDPDEIHDDEKKDVEKSGENDEKKGQYTKFWNEFGKSVKLGIIEDAANRNRLAKLLRFETTKSDGKLTSLDQYIKRMKKSQKDIFYITGSSKEQLEKSPFLERLIKKGYEVIFFTDPVDEYLMQYLMDYEDKKFQNVSKEGLKVGKDSKDKELKEAFKELTKWWKGNLASENVDDVKISNRLADTPCVVVTSKFGWSANMERIMQSQTLSDANKQAYMRGKRVLEINPRHPIIKELKDRIASDPEDESVKETAQLMYQTALIESGFILTDPKDFAARIYNSVKSGLNISPDAVADEEIEAAEEPETSEATETKSDDLAGGLNIEAEPVEQQEENTKDEL
Take B2: the binding entry in assay [2] and in assay [1] was “binds” throughout.

B3: FIB2 nYFP construct (protoplasts) (protein, UniProt Q94AH9 1-320)
chain: MRPPLTGSGGGFSGGRGRGGYSGGRGDGGFSGGRGGGGRGGGRGFSDRGGRGRGRGPPRGGARGGRGPAGRGGMKGGSKVIVEPHRHAGVFIAKGKEDALVTKNLVPGEAVYNEKRISVQNEDGTKTEYRVWNPFRSKLAAAILGGVDNIWIKPGAKVLYLGAASGTTVSHVSDLVGPEGCVYAVEFSHRSGRDLVNMAKKRTNVIPIIEDARHPAKYRMLVGMVDVIFSDVAQPDQARILALNASYFLKSGGHFVISIKANCIDSTVPAEAVFQTEVKKLQQEQFKPAEQVTLEPFERDHACVVGGYRMPKKPKAATAA
B3: the binding entry in assay [3] is “binds”.

B4: FIB2 (protein, UniProt Q94AH9 1-320)
chain: B3 chain
For B4, the binding entry in assay [4] is “binds weakly”; in assay [5], “binds”.

B5: MCM5, full length, radioactively labelled, in vitro translated (protein, UniProt O80786 1-727)
chain: MSGWDEGAVYYSDQPQFPEAGDAATISPHAVLTKFKEFIRNFEIEQNCFPYREALLDNPKRLVVHLEDLLSFDSDLPSLIRSAPADYLPVFEKAAGEVLTGLKMREANEGGVMEEPLTRDVQILLTSREDPVSMRLLGAQYISKLVKISGISIAASRVKAKATYVFLVCKNCKKTREVPCRPGLGGAIVPRSCDNIPQPGEEPCPLDPWMVVPDRSQYVDQQTLKLQENPEDVPTGELPRNMLLSVDRHLVQTIVPGTRLTVMGIYSIFQASSSSNSHKGAVAIRQPYIRVVGLEDTNEASSRGPANFTPDEEEEFKKFADSQDVYKNICTKIAPSIFGHEDVKRAAACLLFGGSRKSLPDGVKLRGDINVLLLGDPSTAKSQFLKFVEKTAPIAVYTSGKGSSAAGLTASVIRDSSTREFYLEGGAMVLADGGVVCIDEFDKMRPEDRVAIHEAMEQQTISIAKAGITTVLNSRTSVLAAANPPSGRYDDLKTAQDNIDLQTTILSRFDLIFIVKDIRKYSQDKEIASHIIRVHASANKFSDENTDSKEDNWLKRYIQYCRARCHPRLSKDAAENLQRKYVTIRMDMKRRAHETGEAAPIPITVRQLEAIVRLSESLAKMRLSHEATPDDVDKAFKLFDTSTMDAARSGINQQINITGEMANEIKQAETQIKRRMGIGARLSERRLIEDLARMGMNDSMVRRALLIMHQRGEVEYQRERRSIVRKA
modifications: 35S-Met labelled
Regarding B5, in assay [6], the binding entry is “binds”.

B6: LSm4 BiFC construct (protoplasts) (protein, UniProt F4K4E3 1-129)
chain: MLPLSLLKTAQGHPMLVELKNGETYNGHLVNCDTWMNIHLREVICTSKDGDRFWRMPECYIRGNTIKYLRVPDEVIDKVQEEKTRTDRKPPGVGRGRGRGVDDGGARGRGRGTSMGKMGGNRGAGRGRG
Take B6: the binding entry in assay [3] is given as “binds weakly”.

B7: LSm4 (LIKE Sm 4) (protein, UniProt F4K4E3 1-129)
chain: B6 chain
In the case of B7, the binding entry in assay [4] and in assay [5] was “binds weakly” in each case.
